The values that follow come from publication PMC10732327.

Protein sequences, listed by entry. Tags and fused reporters are not part of them.
UniProt Q9UPY5: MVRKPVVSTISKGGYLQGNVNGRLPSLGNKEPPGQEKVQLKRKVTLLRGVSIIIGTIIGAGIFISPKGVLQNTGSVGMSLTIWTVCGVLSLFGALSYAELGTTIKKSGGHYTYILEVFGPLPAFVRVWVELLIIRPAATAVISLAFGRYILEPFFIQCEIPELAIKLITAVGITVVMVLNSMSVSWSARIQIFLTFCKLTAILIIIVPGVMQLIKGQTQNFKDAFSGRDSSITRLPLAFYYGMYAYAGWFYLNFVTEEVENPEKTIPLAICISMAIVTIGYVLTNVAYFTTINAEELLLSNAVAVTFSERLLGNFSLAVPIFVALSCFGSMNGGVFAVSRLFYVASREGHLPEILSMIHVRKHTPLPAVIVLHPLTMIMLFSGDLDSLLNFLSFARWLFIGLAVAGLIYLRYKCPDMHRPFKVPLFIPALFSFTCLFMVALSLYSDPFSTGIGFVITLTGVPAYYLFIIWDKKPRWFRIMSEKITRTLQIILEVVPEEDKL
UniProt Q13535: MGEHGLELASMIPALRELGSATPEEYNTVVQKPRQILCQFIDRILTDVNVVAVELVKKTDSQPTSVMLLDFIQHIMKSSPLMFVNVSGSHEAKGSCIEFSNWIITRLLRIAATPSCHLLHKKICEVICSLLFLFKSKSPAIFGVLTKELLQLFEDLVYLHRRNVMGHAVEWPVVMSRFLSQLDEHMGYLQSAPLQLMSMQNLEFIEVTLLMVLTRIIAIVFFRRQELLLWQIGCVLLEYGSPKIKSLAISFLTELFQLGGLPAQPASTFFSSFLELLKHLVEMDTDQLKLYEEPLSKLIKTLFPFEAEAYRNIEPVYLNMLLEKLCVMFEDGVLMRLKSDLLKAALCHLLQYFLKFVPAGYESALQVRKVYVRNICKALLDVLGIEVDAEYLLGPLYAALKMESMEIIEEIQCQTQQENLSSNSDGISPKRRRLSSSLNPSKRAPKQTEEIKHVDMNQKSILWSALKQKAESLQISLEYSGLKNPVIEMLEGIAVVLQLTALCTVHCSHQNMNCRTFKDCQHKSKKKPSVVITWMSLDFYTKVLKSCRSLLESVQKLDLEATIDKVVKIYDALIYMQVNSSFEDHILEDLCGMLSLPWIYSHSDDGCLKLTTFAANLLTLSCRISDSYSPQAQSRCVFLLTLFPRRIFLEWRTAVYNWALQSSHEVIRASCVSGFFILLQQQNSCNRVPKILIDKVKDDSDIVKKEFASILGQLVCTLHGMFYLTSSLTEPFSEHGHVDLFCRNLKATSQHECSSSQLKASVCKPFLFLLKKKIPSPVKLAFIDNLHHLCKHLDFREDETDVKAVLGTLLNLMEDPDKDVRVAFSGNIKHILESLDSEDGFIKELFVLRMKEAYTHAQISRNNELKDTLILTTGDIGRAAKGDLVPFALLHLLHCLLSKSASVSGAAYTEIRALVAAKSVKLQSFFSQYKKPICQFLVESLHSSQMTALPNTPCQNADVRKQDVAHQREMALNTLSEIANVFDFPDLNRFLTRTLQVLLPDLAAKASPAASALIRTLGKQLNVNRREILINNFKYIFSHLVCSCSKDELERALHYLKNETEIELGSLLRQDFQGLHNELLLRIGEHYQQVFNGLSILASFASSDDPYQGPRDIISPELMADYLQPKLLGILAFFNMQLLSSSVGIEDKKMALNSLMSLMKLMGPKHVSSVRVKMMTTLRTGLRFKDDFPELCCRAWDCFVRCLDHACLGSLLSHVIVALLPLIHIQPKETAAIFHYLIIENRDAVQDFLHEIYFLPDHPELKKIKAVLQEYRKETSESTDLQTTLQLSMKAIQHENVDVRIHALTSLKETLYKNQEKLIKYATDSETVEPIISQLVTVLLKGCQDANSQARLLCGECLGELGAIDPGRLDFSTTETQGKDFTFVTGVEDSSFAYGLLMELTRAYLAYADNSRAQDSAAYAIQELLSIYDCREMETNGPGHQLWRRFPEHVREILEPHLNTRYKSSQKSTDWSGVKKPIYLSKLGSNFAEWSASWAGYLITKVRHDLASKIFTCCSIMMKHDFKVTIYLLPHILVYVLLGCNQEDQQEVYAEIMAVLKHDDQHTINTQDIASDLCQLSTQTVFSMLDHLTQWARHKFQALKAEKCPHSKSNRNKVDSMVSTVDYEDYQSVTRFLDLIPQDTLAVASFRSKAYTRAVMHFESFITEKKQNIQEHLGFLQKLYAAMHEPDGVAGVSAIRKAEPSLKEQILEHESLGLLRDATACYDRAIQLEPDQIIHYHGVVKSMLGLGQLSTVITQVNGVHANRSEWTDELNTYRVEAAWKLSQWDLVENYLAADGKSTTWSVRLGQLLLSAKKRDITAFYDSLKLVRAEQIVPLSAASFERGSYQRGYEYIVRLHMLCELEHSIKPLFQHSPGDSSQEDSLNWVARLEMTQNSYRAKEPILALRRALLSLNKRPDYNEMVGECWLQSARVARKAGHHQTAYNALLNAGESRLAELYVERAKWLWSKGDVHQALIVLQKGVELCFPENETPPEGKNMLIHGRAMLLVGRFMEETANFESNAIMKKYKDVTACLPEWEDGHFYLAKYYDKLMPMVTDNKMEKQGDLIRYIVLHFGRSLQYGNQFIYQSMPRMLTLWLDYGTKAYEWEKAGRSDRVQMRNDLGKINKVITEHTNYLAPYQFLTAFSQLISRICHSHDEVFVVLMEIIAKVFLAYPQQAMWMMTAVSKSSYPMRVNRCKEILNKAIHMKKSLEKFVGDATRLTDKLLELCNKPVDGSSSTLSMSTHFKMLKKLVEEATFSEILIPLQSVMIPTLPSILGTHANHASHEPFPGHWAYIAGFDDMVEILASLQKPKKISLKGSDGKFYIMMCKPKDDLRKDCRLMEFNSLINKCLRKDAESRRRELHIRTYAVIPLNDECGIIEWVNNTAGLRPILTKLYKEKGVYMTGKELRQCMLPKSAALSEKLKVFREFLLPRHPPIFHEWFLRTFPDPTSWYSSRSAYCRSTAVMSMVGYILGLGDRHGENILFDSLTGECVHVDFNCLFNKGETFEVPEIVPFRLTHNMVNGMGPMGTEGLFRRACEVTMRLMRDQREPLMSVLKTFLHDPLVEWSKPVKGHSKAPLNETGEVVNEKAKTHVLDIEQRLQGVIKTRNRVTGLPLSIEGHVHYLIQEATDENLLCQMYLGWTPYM

In assay [1] the target is ubiquitin-specific peptidase 20 (USP20), endogenous (human (endogenous in Huh-7)) (UniProt Q9Y2K6). The assay is described as follows: co-IP; endogenous proteins in Huh-7 cells, harvested with RIPA lysis buffer at 4°C; Co-IP with antibody as indicated.
Assay [2] has as its target Solute carrier family 7 member 11 (SLC7A11), endogenous (human (endogenous in Huh-7)) (UniProt Q9UPY5). Described as above.

These are yes or no findings as the source states them, for the method shown. In cells and extracts the contact can be indirect. Some binding calls cover weakened binding; strength is not graded here.

On to “ATR, endogenous (from UniProt Q13535 1-2644) (enzyme)”, for which, in assay [1], the binding result was “binds”.
In the case of “ubiquitin-specific peptidase 20 (USP20), endogenous (from UniProt Q9Y2K6 1-914) (enzyme)”, in assay [2], the binding entry is “binds”.
